PubChem BioAssay AID1259305 – Sanger Institute – 2017
This is one part, drawn at random, of 160 deposited reagents. 96 of all reagents (60%) count as active. 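Each call covers one siRNA sequence in one cell line only; gene-level confirmation needs agreement across siRNAs and lines.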 The numbers tell different reagents against one gene apart. Viability is capped at 1. The record does not give: the amount of reagent, the time to read-out.

Screen: 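Kinase genes whose silencing acts in synergy with trametinib, BYL719 or cetuximab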 (follow-up of hits)
Cell system: human DIFI colorectal cancer cells
Reagent: single siRNA against human genes
Conditions: BYL719 1 µM, cetuximab 5 µg/ml or trametinib 10 nM, or DMSO vehicle, added one day after transfection; exposure time not given
Measured: 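Survival relative to a non-targeting siRNA control pool averaged across replicates, with synergy scores per drug weighing the combination against siRNA only and drug only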
Scale: synergy score with BYL719 and synergy score with Cetuximab and synergy score with Trametinib: higher = stronger combined killing than expected; viability, knock-down alone: higher = more cells surviving knock-down; viability with Cetuximab: higher = more cells surviving knock-down plus drug
Call rule: 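An siRNA counts as synergistic (synthetic lethal) when its synergy score tops 0.10 for at least one of the three drugs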

no.	target gene	reagent	synergy score with BYL719	synergy score with Cetuximab	synergy score with Trametinib	viability, knock-down alone	viability with Cetuximab	Call
1	IKBKB (inhibitor of nuclear factor kappa B kinase subunit beta)	1	0.0951	0.156	0.222	0.823	0.17	active
2	IKBKB (inhibitor of nuclear factor kappa B kinase subunit beta)	2	0.181	0.135	0.202	0.73	0.154	active
3	IKBKB (inhibitor of nuclear factor kappa B kinase subunit beta)	3	0.0227	0.057	0.121	0.933	0.312	active
4	IKBKB (inhibitor of nuclear factor kappa B kinase subunit beta)	4	-0.0597	0.0607	0.0269	0.75	0.236	inactive
5	MAPKAPK2 (MAPK activated protein kinase 2)	1	0.0352	0.0741	-0.0971	1	0.322	inactive
6	MAPKAPK2 (MAPK activated protein kinase 2)	2	-0.0115	0.107	0.094	0.904	0.251	active
7	MAPKAPK2 (MAPK activated protein kinase 2)	3	0.00199	0.0293	0.0449	0.916	0.334	inactive
8	MAPKAPK2 (MAPK activated protein kinase 2)	4	-0.0993	0.0337	-0.16	1	0.362	inactive
9	GUCY2D (guanylate cyclase 2D, retinal)	1	-0.00726	0.0647	0.0523	1	0.331	inactive
10	GUCY2D (guanylate cyclase 2D, retinal)	2	0.0985	0.141	0.224	0.905	0.217	active
11	GUCY2D (guanylate cyclase 2D, retinal)	3	-0.0172	-0.0542	0.0642	0.789	0.367	inactive
12	GUCY2D (guanylate cyclase 2D, retinal)	4	-0.224	-0.0368	-0.0952	1	0.433	inactive
13	RPS6KA4 (ribosomal protein S6 kinase A4)	1	0.0086	0.0843	0.157	0.858	0.255	active
14	RPS6KA4 (ribosomal protein S6 kinase A4)	2	0.128	0.0427	0.155	0.823	0.283	active
15	RPS6KA4 (ribosomal protein S6 kinase A4)	3	-0.0432	0.0542	0.0425	0.843	0.28	inactive
16	RPS6KA4 (ribosomal protein S6 kinase A4)	4	0.249	0.0841	0.186	1	0.312	active
17	CAMK2N1 (calcium/calmodulin dependent protein kinase II inhibitor 1)	1	-0.0379	-0.131	-0.0702	0.632	0.381	inactive
18	CAMK2N1 (calcium/calmodulin dependent protein kinase II inhibitor 1)	2	0.349	0.0152	-0.0529	0.729	0.273	active
19	CAMK2N1 (calcium/calmodulin dependent protein kinase II inhibitor 1)	3	0.127	0.043	-0.158	0.963	0.338	active
20	CAMK2N1 (calcium/calmodulin dependent protein kinase II inhibitor 1)	4	-0.025	-0.0622	-0.086	0.54	0.276	inactive
21	CHD4 (chromodomain helicase DNA binding protein 4)	1	-0.0232	0.0276	0.048	0.285	0.0851	inactive
22	CHD4 (chromodomain helicase DNA binding protein 4)	2	0.115	0.127	0.187	0.608	0.114	active
23	CHD4 (chromodomain helicase DNA binding protein 4)	3	0.0523	0.0426	0.0386	0.783	0.267	inactive
24	CHD4 (chromodomain helicase DNA binding protein 4)	4	0.103	0.118	0.0552	0.959	0.262	active
25	GRK5 (G protein-coupled receptor kinase 5)	1	-0.215	0.0223	0.0846	1	0.374	inactive
26	GRK5 (G protein-coupled receptor kinase 5)	2	-0.208	-0.058	-0.13	1	0.454	inactive
27	GRK5 (G protein-coupled receptor kinase 5)	3	0.0815	0.128	0.233	0.637	0.124	active
28	GRK5 (G protein-coupled receptor kinase 5)	4	-0.0298	0.128	-0.0254	1	0.268	active
29	GTF2H1 (general transcription factor IIH subunit 1)	1	0.122	0.113	0.0334	0.773	0.193	active
30	GTF2H1 (general transcription factor IIH subunit 1)	2	-0.0205	0.0649	-0.0997	1	0.331	inactive
31	GTF2H1 (general transcription factor IIH subunit 1)	3	-0.113	-0.0134	-0.186	1	0.409	inactive
32	GTF2H1 (general transcription factor IIH subunit 1)	4	0.0761	-0.155	-0.0246	0.5	0.353	inactive
33	SYK (spleen associated tyrosine kinase)	1	0.157	0.0786	0.215	0.714	0.204	active
34	SYK (spleen associated tyrosine kinase)	2	-0.0895	0.222	0.226	0.937	0.149	active
35	SYK (spleen associated tyrosine kinase)	3	0.0511	0.148	0.229	0.824	0.179	active
36	SYK (spleen associated tyrosine kinase)	4	-0.127	0.0638	-0.197	1	0.332	inactive

Laid out differently: entries from further up.
IKBKB (inhibitor of nuclear factor kappa B kinase subunit beta) #3
- synergy score with BYL719: 0.0227
- synergy score with Cetuximab: 0.057
- synergy score with Trametinib: 0.121
- viability, knock-down alone: 0.933
- viability with Cetuximab: 0.312
- Call: active

IKBKB (inhibitor of nuclear factor kappa B kinase subunit beta) #4
- synergy score with BYL719: -0.0597
- synergy score with Cetuximab: 0.0607
- synergy score with Trametinib: 0.0269
- viability, knock-down alone: 0.75
- viability with Cetuximab: 0.236
- Call: inactive

MAPKAPK2 (MAPK activated protein kinase 2) #1
- synergy score with BYL719: 0.0352
- synergy score with Cetuximab: 0.0741
- synergy score with Trametinib: -0.0971
- viability, knock-down alone: 1
- viability with Cetuximab: 0.322
- Call: inactive
